# Experimental data reported in PubChem BioAssay AID504834 (National Center for Advancing Translational Sciences (NCATS), 2011).
# Screen size: about 320,000 compounds; about 22,000 (6.9%) were called active. The shares of active, inactive and inconclusive entries below differ from those in the screen. Calls come from the whole dose curve; as a rule, active = well fitted inhibition curve with a large enough effect; inconclusive = small, poorly fitted or top-dose-only effect, or another doubt; inactive = no such curve, though single readings can be large or run the other way. A potency beside an inconclusive call is a rough fit, not a confirmed value.
# Assay: Primary qHTS for delayed death inhibitors of the malarial parasite plastid, 96 hour incubation
# Details: P. falciparum luciferase reporter growth; series mostly up to 28.7 µM
# Outline: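 Luminescence readout: decreased luciferase signal marks inhibited growth of reporter-expressing P. falciparum in infected red cells (2% hematocrit, 0.05% parasitemia final), exposed to compound two generations (96 h, 37 C, 5% CO2).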
# Potency is the fitted concentration of half-maximal effect.
row,SMILES,Potency
1,COc1ccc(OC)c(NC(=O)NCCCCc2ccccc2)c1,"inconclusive: 20.8 µM [inhibitor, partial curve, poor fit]"
2,CC(=O)C1=C(C)NC(SCC(N)=O)=C(C#N)C1c1sccc1C (stereo unspecified),"inconclusive: 16.5 µM [inhibitor, single point]"
3,CCOc1ccc(CNc2nc3ccccc3n2C)cc1,"inconclusive: 0.465 µM [inhibitor, full curve]"
4,O=C(C1=C[C@@H](c2ccccc2)C[C@@H](OCCCCO)O1)N1CCOCC1,inactive
5,N#C/C(=C\Nc1ccc(Cl)cc1)S(=O)(=O)c1ccccn1,"inconclusive: 3.7 µM [inhibitor, partial curve, poor fit]"
6,COc1ccc(CNC(=O)CN2CCN(S(=O)(=O)c3cc(Br)ccc3Br)CC2)cc1OC,"inconclusive: 13.1 µM [inhibitor, partial curve]"
7,COc1cc2c(cc1OC)[C@@H]1Cc3ccc(OC)c(OC)c3CN1CC2,"inconclusive: 18.5 µM [inhibitor, single point]"
8,CCCC(=O)NC(C)c1nc2ccccc2n1CC (stereo unspecified),inactive
9,COc1ccccc1NC(NC(=O)c1ccccn1)C(Cl)(Cl)Cl (stereo unspecified),"inconclusive: 5.22 µM [inhibitor, partial curve, poor fit]"
10,C/C(CC(=O)Nc1ccc2c(c1)OCCO2)=N\NC(=O)COc1cccc(C)c1,"inconclusive: 6.57 µM [inhibitor, partial curve]"
11,CCCCn1c2ccc(C)cc2c2nnc(SCCN3CCCCC3)nc21,"inconclusive: 7.38 µM [inhibitor, partial curve]"
12,CCc1nnc(NC(=O)C2CCCN2S(=O)(=O)c2ccc(C)cc2)s1 (stereo unspecified),"inconclusive: 0.0029 µM [inhibitor, full curve, poor fit]"
13,COc1ccc(CNC(=O)COc2cc(O)c3c(c2)OC(C)(C)CC3=O)c(OC)c1,"inconclusive: 9.28 µM [inhibitor, single point]"
14,COc1ccccc1NC(=O)CC12CC3CC(CC(Br)(C3)C1)C2,inactive
15,Cc1ccnc(Nc2nc(-c3ccc(F)cc3)cs2)c1,"inconclusive: 14.7 µM [inhibitor, partial curve, poor fit]"
16,CCOC(=O)c1c(-c2ccc(C)o2)csc1NC(=O)CN(C)CC(=O)Nc1ccc(C)cc1,"inconclusive: 13.1 µM [inhibitor, partial curve, poor fit]"
17,Cc1cc2ccccc2n1CCNC(=O)Cc1ccccc1,"inconclusive: 11.7 µM [inhibitor, single point]"
18,COc1cc2ncnc(NCc3cccc(Cl)c3)c2cc1OC,"inconclusive: 11.7 µM [inhibitor, single point]"
19,COc1ccc(OCC(O)CNCCNc2nccc(C(F)(F)F)n2)cc1 (stereo unspecified),"inconclusive: 5.22 µM [inhibitor, partial curve]"
20,O=C(Nc1nnc(-c2ccccc2SCc2ccccc2F)s1)Nc1ccccc1F,inactive
21,CCOC(=O)N1CCN(C(=O)Nc2ccc(Cl)cc2)CC1,inactive
22,CCOc1ccc(Cn2nnc(C(=O)NCCc3ccc(Cl)cc3)c2N)cc1,active: 5.22 µM
23,CC(=O)N1N=C(c2ccccc2)CC1c1cn(C)c2ccccc12 (stereo unspecified),inactive
24,Cc1c(C(=O)O)nn(-c2ccccc2)c(=O)c1C#N,"inconclusive: 16.5 µM [inhibitor, single point]"

row,SMILES,Potency
1,Cc1cccc(CCNC(=O)CCS(=O)(=O)c2ccc3nc(C)sc3c2)c1,"inconclusive: 9.28 µM [inhibitor, partial curve]"
2,COc1cc2c(cc1OC)C(c1cc3cc4c(cc3[nH]c1=O)OCO4)N(C(=O)C(C)C)CC2 (stereo unspecified),"inconclusive: 9.28 µM [inhibitor, partial curve, poor fit]"
3,CC(C)NC(=O)c1cc(C(=O)c2cc(Cl)ccc2O)coc1=N,"inconclusive: 0.0047 µM [inhibitor, full curve, poor fit]"
4,O=c1c2ccc([N+](=O)[O-])cc2ncn1CCOc1ccccc1,"inconclusive: 10.4 µM [inhibitor, single point]"
5,Cn1c(=O)c2c(-c3cccc(F)c3)c3c(nc2n(C)c1=O)-c1ccccc1C3O (stereo unspecified),inactive
6,COc1ccc(-c2c(N)n[nH]c2C)cc1OC,inactive
7,CCc1nn(C(C)C(=O)N2CCN(c3ccc(OC)cc3)CC2)c(=O)c2cc3occc3n12 (stereo unspecified),"inconclusive: 18.5 µM [inhibitor, single point]"
8,Cc1c(C(c2ccc(O)cc2)c2c(O)c3ccccc3oc2=O)c(=O)n(-c2ccccc2)n1C (stereo unspecified),inactive
9,Cc1nc(SCc2ccccc2)c2ccsc2n1,inactive
10,CC(C)c1ccc(S(=O)(=O)N2CCN(C(=O)CN3C(=O)NC4(CCCC4)C3=O)CC2)cc1,"inconclusive: 18.5 µM [inhibitor, single point]"
11,Cc1[nH]nc2nc(SCC(=O)NCCC3=CCCCC3)n(-c3ccc(Br)cc3)c(=N)c12,inactive
12,COC(=O)[C@@H]1C[C@@]2(O)[C@H](O)[C@H](O)[C@H](O)C[C@H]2N1C/C=C/c1ccccc1,inactive
13,Clc1ccc(C2[C@H]3CN(Cc4ccc(-c5ccccc5)cc4)[C@H](c4ccccc4)C34CC2(c2cccnc2)C4)cn1 (stereo partly specified),active: 2.33 µM
14,O=C(Cn1cc(/C=C\[N+](=O)[O-])c2ccccc21)Nc1ccccc1,"inconclusive: 13.1 µM [inhibitor, single point]"
15,COc1ccccc1OCC(=O)Nc1ccccc1C(=O)Nc1cccc(C(=O)O)c1,"inconclusive: 9.28 µM [inhibitor, partial curve, poor fit]"
16,CN(C)C(=O)COC(=O)c1ccccc1OCC(=O)Nc1ccc(SC(F)F)cc1,inactive
17,Cc1ccc(OCc2ccc(C(=O)NN)o2)c([N+](=O)[O-])c1,"inconclusive: 18.5 µM [inhibitor, partial curve, poor fit]"
18,O=C(CC1CCC1)NC(c1ccccc1)c1ccccc1,inactive
19,O=C(NCCCO)/C(=C/c1ccc(-c2cccc([N+](=O)[O-])c2)o1)NC(=O)c1ccccc1,inactive
20,CCOc1ccccc1NC(=O)CC(O)(C(F)(F)F)C(F)(F)F,inactive
21,COC(=O)CSc1nc(N)c2c3c(sc2n1)CCCC3,inactive
22,CCOC(=O)C1=C(Cc2ccc(C)cc2)C(=O)c2ccccc2C1=O,active: 2.33 µM
23,Cc1noc(/C=C/N(C)C)c1S(=O)(=O)N1CCC(C(=O)NC(C)(C)C)CC1,"inconclusive: 16.5 µM [inhibitor, partial curve, poor fit]"
24,COc1ccc(C(C)C)cc1S(=O)(=O)NCCCn1ccnc1,"inconclusive: 3.7 µM [inhibitor, single point]"

# Looked up one by one from above, 3 records:
row,SMILES,Potency
23,Cc1noc(/C=C/N(C)C)c1S(=O)(=O)N1CCC(C(=O)NC(C)(C)C)CC1,"inconclusive: 16.5 µM [inhibitor, partial curve, poor fit]"
10,CC(C)c1ccc(S(=O)(=O)N2CCN(C(=O)CN3C(=O)NC4(CCCC4)C3=O)CC2)cc1,"inconclusive: 18.5 µM [inhibitor, single point]"
5,Cn1c(=O)c2c(-c3cccc(F)c3)c3c(nc2n(C)c1=O)-c1ccccc1C3O (stereo unspecified),inactive

# Continuation:

row,SMILES,Potency
1,CC1CCCN(C(=O)c2ccc(CNc3c(N4CCCCC4)c(=O)c3=O)cc2)C1 (stereo unspecified),inactive
2,CN1CCN(c2ccc(NC(=O)c3ccc4ccccc4c3)cc2)CC1,inactive
3,S=c1[nH]nc(-c2ccc3ccccc3n2)n1-c1cc(Cl)cc(Cl)c1,active: 4.15 µM
4,O=C(COc1ccc(Br)cc1CO)Nc1ccccc1F,inactive
5,CC1(N(O)C=C2C=CC(=O)C=C2)CCCCC1=O (stereo unspecified),"inconclusive: 1.17 µM [inhibitor, partial curve]"
6,COc1ccc(-c2cc(C(F)(F)F)nc(S(=O)(=O)CCCC(=O)Nc3cc(C)on3)n2)cc1OC,"inconclusive: 18.5 µM [inhibitor, single point]"
7,CCOc1ccccc1C(=O)NCC(=O)NCC(C)(C)N1CCOCC1,inactive
8,O=C(O)CCN1C(=O)C2C3C=CC(C3)C2C1=O (stereo unspecified),"inconclusive: 10.4 µM [inhibitor, single point]"
9,c1ccc2c(c1)OCC(CNc1ncnc3sccc13)O2 (stereo unspecified),"inconclusive: 18.5 µM [inhibitor, single point]"
10,CC(C)C(NC(=O)C1CCCCC1)C(=O)NC1CCN(Cc2ccccc2)CC1 (stereo unspecified),"inconclusive: 14.7 µM [inhibitor, partial curve]"
11,Cc1cc(C(C)(C)C)oc1C(=O)N(CC(=O)NC1CCCC1)Cc1ccccc1Cl,active: 9.28 µM
12,CCOc1ccc(-c2[nH]ncc2-c2ccccc2)c(O)c1,active: 7.38 µM
13,CN(C)C(CNC(=O)c1cccc(C(F)(F)F)c1)c1ccco1 (stereo unspecified),inactive
14,COCCNCCOc1ccccc1-c1ccccc1,"inconclusive: 9.28 µM [inhibitor, single point]"
15,Cc1ncc(S(=O)(=O)c2ccc(Cl)cc2)c(-c2ccccc2)n1,"inconclusive: 11.7 µM [inhibitor, partial curve, poor fit]"
16,CCCn1c(=NC(=O)c2ccco2)c(C(=O)OCC)cc2c(=O)n3ccccc3nc21,inactive
17,COc1ccc(-n2c(Cc3cccn3C)nnc2SCC(=O)Nc2ccc3c(c2)OCCO3)cc1,"inconclusive: 11.7 µM [inhibitor, single point]"
18,Cc1ccc(O)c(N=Nc2ccc(S(=O)(=O)N3CCCC3)cc2)c1,"inconclusive: 18.5 µM [inhibitor, single point]"
19,COc1cccc(-n2nc(-c3ccnn3-c3cccc(Cl)c3)c(=O)n(C)c2=O)c1,"inconclusive: 9.28 µM [inhibitor, single point]"
20,CCOc1ccc(OCCC(=O)OCC(=O)Nc2ccc(C)c(S(=O)(=O)N3CCCCC3)c2)cc1,inactive
21,CC1(C)[C@@H](O)CC[C@]2(C)[C@H]3C(=O)C=C4[C@@H]5C[C@@](C)(C(=O)O)CC[C@]5(C)CC[C@@]4(C)[C@]3(C)CC[C@@H]12,"inconclusive: 18.5 µM [inhibitor, single point]"
22,CCN(CC)C(=O)COc1ccc(-c2nnc(N3CCCCC3)c3ccccc23)cc1,inactive
23,COc1ccc(NC(=O)C(c2ccc(OC)cc2)N(C)C(=O)c2cnccn2)cc1 (stereo unspecified),"inconclusive: 0.0233 µM [inhibitor, full curve, poor fit]"
